Experimental data taken from publication PMC10624808.
Numbering of substitutions follows the chain as printed. Names may count otherwise. Results are given in words; binding and its absence hold for the method and conditions named. In cells and extracts the contact can be indirect. Some results given as binding are weak or reduced against the parent protein; the word gives no strength. Each block holds one binder with its values, some of them ahead of it.

Tests used:
Test in all cases: cross-linking; in vivo cross-linking in the E. coli heterologous system; cellular extracts treated with formaldehyde, final 1% (w/w); 5 µg on 12% SDS-PAGE, Western blot with antibodies against Lo18
[1] = target: Lo18 small heat shock protein of Oenococcus oeni (Oenococcus oeni) (UniProt P94898)
[2] = target: Lo18 E60K (Oenococcus oeni) (UniProt P94898)
[3] = target: Lo18 G82V (Oenococcus oeni) (UniProt P94898)
[4] = target: Lo18 R99D (Oenococcus oeni) (UniProt P94898)
[5] = target: Lo18 T79V (Oenococcus oeni) (UniProt P94898)

- binding [1]: binds
B1: Lo18 small heat shock protein of Oenococcus oeni (protein, UniProt P94898 1-148)
chain: MANELMDRNDGLMDVSDMMGNLMNNFFGPRDGLWESARHNNSIMRTDISENDKEYGLKIELPGLDKKDIKIDYSNDNLTVSGVLSSKAEEKDKKNNVVRSERRYGNYSRSYYVPGVDENKISAKYENGILNLTLPKSDESQTHHIEIQ

- binding [2]: binds weakly
B2: Lo18 E60K (protein, UniProt P94898 1-148)
chain: B1 chain with E60K

- binding [3]: binds
B3: Lo18 G82V (protein, UniProt P94898 1-148)
chain: B1 chain with G82V

- binding [4]: binds weakly
B4: Lo18 R99D (protein, UniProt P94898 1-148)
chain: B1 chain with R99D

- binding [5]: binds weakly
B5: Lo18 T79V (protein, UniProt P94898 1-148)
chain: B1 chain with T79V
